The values that follow come from the supplement of paper PMC6411743.

Chains of the proteins cited; added tags and fusions are not shown. Lines headed by an entry give the natural chain unless they say otherwise; changes in a name come on top.
UniProt Q6P9B6: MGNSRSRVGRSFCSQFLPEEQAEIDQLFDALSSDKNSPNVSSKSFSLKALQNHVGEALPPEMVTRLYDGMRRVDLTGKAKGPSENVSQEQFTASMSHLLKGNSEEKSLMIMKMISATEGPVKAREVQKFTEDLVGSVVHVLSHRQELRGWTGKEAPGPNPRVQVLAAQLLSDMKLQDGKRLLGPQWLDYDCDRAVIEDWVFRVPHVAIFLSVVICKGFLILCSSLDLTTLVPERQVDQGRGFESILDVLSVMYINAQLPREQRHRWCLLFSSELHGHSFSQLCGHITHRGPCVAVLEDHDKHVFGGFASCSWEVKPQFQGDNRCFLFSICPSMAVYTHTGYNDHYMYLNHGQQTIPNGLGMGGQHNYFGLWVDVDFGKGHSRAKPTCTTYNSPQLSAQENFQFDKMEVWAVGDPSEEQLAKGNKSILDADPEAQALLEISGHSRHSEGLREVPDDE
UniProt Q6WKZ4: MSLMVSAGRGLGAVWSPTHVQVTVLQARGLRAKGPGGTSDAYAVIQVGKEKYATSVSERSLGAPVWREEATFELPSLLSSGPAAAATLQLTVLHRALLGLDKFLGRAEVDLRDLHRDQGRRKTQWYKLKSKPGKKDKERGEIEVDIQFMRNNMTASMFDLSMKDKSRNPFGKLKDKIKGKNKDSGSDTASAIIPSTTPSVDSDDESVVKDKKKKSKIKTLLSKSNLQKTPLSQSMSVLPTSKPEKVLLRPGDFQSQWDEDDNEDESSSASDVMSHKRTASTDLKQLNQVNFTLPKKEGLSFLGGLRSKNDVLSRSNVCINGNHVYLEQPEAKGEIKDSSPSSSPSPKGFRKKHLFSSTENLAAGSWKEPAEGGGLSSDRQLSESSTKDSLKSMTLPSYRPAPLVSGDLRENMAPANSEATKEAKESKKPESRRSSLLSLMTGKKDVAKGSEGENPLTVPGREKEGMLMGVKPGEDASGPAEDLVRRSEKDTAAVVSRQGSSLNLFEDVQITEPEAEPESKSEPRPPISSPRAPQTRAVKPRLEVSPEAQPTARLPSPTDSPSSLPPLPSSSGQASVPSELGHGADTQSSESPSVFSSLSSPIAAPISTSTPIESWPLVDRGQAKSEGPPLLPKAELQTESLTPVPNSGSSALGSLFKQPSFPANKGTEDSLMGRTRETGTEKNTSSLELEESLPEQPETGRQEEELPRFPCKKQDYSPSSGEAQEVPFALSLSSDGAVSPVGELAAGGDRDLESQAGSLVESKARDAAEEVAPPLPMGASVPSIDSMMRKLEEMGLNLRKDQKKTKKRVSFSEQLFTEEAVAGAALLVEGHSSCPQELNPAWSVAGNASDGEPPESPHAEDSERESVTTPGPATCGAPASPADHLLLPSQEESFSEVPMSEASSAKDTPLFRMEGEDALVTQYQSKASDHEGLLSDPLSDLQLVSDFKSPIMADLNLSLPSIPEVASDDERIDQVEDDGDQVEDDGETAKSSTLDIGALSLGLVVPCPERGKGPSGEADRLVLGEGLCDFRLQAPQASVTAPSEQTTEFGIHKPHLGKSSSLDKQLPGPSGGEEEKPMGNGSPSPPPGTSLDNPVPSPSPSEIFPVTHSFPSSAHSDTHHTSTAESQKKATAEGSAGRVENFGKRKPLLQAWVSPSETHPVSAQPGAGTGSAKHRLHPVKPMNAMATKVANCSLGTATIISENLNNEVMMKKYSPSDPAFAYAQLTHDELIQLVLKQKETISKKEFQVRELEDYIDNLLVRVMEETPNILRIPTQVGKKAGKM
UniProt O14880: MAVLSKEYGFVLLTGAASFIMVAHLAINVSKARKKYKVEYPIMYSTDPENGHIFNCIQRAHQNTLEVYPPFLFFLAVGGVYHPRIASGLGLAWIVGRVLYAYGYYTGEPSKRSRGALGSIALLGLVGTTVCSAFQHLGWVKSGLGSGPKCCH
UniProt Q6DHV7: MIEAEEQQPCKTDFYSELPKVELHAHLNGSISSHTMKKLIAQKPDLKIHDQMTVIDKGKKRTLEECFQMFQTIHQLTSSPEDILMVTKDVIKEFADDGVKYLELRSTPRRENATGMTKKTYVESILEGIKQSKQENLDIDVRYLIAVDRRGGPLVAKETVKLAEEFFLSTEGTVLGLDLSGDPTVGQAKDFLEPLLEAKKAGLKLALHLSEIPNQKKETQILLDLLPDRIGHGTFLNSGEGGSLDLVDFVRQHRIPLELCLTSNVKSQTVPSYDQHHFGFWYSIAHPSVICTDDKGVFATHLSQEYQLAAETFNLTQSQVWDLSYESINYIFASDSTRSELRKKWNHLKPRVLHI
UniProt Q5VT52: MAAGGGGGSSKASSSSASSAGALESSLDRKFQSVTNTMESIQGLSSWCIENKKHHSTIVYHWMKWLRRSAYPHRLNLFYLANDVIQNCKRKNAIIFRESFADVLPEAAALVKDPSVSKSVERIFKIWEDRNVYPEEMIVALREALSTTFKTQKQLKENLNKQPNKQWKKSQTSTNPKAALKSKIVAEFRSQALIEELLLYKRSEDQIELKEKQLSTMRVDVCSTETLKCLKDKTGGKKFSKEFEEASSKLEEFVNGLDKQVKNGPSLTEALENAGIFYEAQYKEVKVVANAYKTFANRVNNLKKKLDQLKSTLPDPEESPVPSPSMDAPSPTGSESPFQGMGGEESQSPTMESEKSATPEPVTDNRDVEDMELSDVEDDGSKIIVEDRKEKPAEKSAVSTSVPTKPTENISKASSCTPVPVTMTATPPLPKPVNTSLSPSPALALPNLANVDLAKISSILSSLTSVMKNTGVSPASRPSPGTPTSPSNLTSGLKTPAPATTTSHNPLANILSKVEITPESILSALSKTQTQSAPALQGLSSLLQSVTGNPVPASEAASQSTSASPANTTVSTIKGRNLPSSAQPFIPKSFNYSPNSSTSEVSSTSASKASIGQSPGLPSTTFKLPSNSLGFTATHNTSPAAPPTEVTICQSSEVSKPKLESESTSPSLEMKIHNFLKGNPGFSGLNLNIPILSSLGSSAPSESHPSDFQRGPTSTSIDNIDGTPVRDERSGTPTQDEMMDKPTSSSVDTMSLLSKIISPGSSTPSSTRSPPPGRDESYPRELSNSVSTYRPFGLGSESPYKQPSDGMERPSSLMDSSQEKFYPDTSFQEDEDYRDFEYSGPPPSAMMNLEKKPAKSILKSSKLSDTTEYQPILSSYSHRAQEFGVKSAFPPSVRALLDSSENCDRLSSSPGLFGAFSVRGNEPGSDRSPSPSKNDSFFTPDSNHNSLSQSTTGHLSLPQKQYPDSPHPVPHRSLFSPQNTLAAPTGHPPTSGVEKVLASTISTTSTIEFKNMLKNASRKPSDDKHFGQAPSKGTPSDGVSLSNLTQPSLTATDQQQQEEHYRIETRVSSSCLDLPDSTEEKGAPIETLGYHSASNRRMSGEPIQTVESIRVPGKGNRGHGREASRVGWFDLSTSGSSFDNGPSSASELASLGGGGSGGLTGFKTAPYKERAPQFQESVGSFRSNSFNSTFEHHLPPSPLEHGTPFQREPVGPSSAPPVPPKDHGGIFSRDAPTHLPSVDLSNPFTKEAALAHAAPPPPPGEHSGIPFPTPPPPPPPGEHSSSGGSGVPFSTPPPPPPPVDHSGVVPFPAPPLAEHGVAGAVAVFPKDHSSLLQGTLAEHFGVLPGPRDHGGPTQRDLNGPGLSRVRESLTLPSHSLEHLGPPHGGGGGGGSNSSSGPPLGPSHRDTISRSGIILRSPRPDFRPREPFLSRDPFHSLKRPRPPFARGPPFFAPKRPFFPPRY
UniProt Q7L8L6: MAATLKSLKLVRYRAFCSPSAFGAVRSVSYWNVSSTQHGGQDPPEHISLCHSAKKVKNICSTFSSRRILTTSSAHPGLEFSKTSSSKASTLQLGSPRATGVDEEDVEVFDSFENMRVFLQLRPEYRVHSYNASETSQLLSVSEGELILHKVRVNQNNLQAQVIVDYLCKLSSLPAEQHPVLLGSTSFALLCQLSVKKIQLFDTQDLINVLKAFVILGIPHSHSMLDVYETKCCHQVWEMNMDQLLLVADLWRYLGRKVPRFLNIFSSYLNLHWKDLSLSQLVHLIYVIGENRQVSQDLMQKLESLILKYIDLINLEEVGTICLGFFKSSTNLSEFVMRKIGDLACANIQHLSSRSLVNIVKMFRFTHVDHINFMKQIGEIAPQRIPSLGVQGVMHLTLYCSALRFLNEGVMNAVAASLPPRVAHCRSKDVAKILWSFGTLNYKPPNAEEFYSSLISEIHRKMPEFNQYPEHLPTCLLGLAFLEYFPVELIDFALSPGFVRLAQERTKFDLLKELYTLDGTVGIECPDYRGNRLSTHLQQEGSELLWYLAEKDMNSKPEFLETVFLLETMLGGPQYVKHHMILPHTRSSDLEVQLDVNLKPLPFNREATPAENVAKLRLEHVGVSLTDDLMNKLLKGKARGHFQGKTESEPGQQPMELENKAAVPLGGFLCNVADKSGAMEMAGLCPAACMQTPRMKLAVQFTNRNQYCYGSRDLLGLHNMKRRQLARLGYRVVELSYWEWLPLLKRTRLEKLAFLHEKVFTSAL
UniProt Q6R327, whole entry: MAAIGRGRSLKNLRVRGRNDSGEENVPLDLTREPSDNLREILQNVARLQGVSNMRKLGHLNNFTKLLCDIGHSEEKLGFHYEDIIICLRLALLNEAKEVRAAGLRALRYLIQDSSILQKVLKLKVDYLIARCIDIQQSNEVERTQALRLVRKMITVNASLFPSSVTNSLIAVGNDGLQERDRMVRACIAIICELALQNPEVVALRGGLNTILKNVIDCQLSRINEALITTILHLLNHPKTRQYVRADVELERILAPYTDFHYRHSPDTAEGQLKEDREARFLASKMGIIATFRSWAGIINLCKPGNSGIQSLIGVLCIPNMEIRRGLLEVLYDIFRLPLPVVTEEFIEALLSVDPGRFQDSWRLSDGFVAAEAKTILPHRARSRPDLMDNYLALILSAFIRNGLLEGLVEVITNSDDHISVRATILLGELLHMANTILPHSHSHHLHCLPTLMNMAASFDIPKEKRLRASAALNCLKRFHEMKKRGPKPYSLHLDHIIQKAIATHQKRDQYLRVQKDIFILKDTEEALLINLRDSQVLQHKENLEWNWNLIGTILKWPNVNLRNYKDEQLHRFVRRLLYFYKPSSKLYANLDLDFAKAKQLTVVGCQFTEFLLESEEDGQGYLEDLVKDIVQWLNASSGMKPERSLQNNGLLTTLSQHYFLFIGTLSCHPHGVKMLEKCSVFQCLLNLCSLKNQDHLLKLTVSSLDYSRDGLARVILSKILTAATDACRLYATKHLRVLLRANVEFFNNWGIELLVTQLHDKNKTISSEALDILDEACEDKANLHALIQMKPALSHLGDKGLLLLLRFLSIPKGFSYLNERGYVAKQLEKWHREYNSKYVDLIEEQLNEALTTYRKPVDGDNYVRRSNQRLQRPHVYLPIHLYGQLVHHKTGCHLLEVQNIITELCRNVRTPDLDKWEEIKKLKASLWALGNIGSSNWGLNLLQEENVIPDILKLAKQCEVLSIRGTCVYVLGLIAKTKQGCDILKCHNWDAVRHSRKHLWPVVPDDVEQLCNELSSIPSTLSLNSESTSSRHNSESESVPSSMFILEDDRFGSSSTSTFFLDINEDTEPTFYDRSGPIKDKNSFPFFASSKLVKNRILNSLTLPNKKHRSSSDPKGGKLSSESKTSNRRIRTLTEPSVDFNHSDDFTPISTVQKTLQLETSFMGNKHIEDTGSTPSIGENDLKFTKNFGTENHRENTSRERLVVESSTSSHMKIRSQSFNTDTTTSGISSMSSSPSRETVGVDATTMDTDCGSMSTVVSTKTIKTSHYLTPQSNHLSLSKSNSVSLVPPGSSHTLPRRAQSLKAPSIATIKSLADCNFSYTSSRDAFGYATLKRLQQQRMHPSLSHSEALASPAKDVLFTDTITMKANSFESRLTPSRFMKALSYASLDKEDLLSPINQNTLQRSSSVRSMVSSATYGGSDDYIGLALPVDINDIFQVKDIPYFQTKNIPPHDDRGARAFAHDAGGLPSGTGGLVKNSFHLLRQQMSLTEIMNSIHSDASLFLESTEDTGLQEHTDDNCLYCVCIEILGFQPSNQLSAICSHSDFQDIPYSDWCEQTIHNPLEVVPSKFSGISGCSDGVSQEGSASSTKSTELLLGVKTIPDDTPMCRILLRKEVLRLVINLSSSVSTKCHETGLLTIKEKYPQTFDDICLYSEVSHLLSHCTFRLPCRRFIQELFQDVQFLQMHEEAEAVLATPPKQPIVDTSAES
UniProt Q6N063: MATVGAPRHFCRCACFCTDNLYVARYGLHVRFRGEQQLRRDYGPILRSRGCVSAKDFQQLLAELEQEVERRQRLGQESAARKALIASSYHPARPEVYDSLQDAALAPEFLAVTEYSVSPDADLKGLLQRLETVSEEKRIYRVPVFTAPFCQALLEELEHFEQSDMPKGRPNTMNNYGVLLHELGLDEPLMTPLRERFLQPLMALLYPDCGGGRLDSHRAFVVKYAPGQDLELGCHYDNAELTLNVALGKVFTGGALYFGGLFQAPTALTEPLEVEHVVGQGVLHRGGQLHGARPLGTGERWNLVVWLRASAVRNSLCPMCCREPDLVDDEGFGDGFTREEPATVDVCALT

± gives the standard deviation of the averaged measurements. This is a selection; strong and weak results do not stand in their true shares.

Compound in one assay: Nc1ncnc2c1ncn2[C@@H]1O[C@H](COP(=O)(O)OP(=O)(O)NP(=O)(O)O)[C@@H](O)[C@H]1O [adenylyl imidodiphosphate]
Description: NP40-soluble protein abundance relative to vehicle (solubility fold change) (ratio); higher = more soluble protein in presence of AMP-PNP. The conditions noted are these: concentration: 4mM. The gist of the method:
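In three independent experiments, Jurkat crude lysate made by Dounce homogenisation was treated for 10 min at room temperature and then 3 min at 37 °C with eight concentrations ranging from 0.1 to 10 mM. It was then solubilised with 0.8% NP40 plus benzonase for 60 min at 4 °C and ultracentrifuged. The supernatant was TMT-labelled for LC-MS/MS, and each value is the fold change against the detergent-processed vehicle for the same replicate, using vsn-normalised intensities.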
As for UniProt Q6P9B6, the NP40-soluble protein abundance came to 1.01 ± 0.071.
With RAB11FIP1 (UniProt Q6WKZ4), the NP40-soluble protein abundance was found to be 1.05 ± 0.041.
Consider UniProt Q709C8 and related entries, for which the NP40-soluble protein abundance was 0.931 ± 0.026.
For the target LARP1 (UniProt Q6PKG0), the NP40-soluble protein abundance is 0.998 ± 0.069.
For UniProt Q68EM7-2|Q68EM7-3|Q68EM7, the NP40-soluble protein abundance was determined as 0.956 ± 0.036.
Take UniProt Q7L4I2 and related entries: the NP40-soluble protein abundance was 0.977 ± 0.061.
For the target CNNM4 (UniProt Q6P4Q7), the NP40-soluble protein abundance was 0.99 ± 0.018.
Consider TAF3 (UniProt Q5VWG9), for which the NP40-soluble protein abundance came out at 1.05 ± 0.05.
Regarding TTC27 (UniProt Q6P3X3), the NP40-soluble protein abundance turned out to be 1.03 ± 0.032.
Take UniProt Q7RTV0: the NP40-soluble protein abundance is 1.06 ± 0.048.
For the target UniProt Q7KYR7 and related entries, the NP40-soluble protein abundance stood at 0.959 ± 0.015.
Turning to USP34 (UniProt Q70CQ2), the NP40-soluble protein abundance came out at 0.955 ± 0.026.
Take NAIF1 (UniProt Q69YI7): the NP40-soluble protein abundance worked out at 0.982 ± 0.033.
On to SDHAF4 (UniProt Q5VUM1), for which the NP40-soluble protein abundance stood at 0.9496 ± 0.0036.
On the same count and under the same terms, in the case of “Q5VV87 and related entries (UniProt O14880)” it was 0.957 ± 0.058.
Take INTS5 (UniProt Q6P9B9): the NP40-soluble protein abundance worked out at 1.05 ± 0.078.
For the target MRPL14 (UniProt Q6P1L8), the NP40-soluble protein abundance worked out at 0.991 ± 0.037.
Consider UniProt Q5XUX1 and related entries, for which the NP40-soluble protein abundance worked out at 0.976 ± 0.026.
In the case of UniProt Q71RC2 and related entries, the NP40-soluble protein abundance was found to be 1.06 ± 0.041.
Regarding UniProt Q6FI81 and related entries, the NP40-soluble protein abundance came out at 1.02 ± 0.03.
In the case of UniProt Q7Z434 and related entries, the NP40-soluble protein abundance was found to be 1.01 ± 0.015.
For HS2ST1 (UniProt Q7LGA3), the NP40-soluble protein abundance was 1.14 ± 0.032.
On the same count and under the same terms, in the case of UniProt Q6ICG6 and related entries it was 0.968 ± 0.048; in that of ZCCHC8 (UniProt Q6NZY4), 1.03 ± 0.031.
UniProt Q6DHV7 and related entries: the NP40-soluble protein abundance is 0.9821 ± 0.0043.
UniProt Q5VT52 and related entries: the NP40-soluble protein abundance turned out to be 1.047 ± 0.0076.
For UniProt Q7Z2W9 and related entries, the NP40-soluble protein abundance turned out to be 0.982 ± 0.0065.
Take EDC4 (UniProt Q6P2E9): the NP40-soluble protein abundance was determined as 0.957 ± 0.039.
Regarding ARHGAP11A (UniProt Q6P4F7), the NP40-soluble protein abundance is 1.01 ± 0.029.
Turning to UniProt Q6PCB7 and related entries, the NP40-soluble protein abundance is 1.01 ± 0.04.
On to PHLDB3 (UniProt Q6NSJ2), for which the NP40-soluble protein abundance came to 1.03 ± 0.03.
For the target TRIM65 (UniProt Q6PJ69), the NP40-soluble protein abundance amounted to 0.981 ± 0.033.
As to UniProt Q5VWN6, the NP40-soluble protein abundance came out at 1.02 ± 0.016.
As for FASTKD5 (UniProt Q7L8L6), the NP40-soluble protein abundance came to 0.968 ± 0.031.
Regarding UniProt Q63HQ0, the NP40-soluble protein abundance was 0.997 ± 0.048.
Consider UniProt Q6P1N0 and related entries, for which the NP40-soluble protein abundance was determined as 1.009 ± 0.0031.
With UniProt Q6NUQ4 and related entries, the NP40-soluble protein abundance turned out to be 1.06 ± 0.036.
Consider UniProt Q6R327 and related entries, for which the NP40-soluble protein abundance stood at 1.01 ± 0.027.
For SND1 (UniProt Q7KZF4), the NP40-soluble protein abundance was 1.11 ± 0.049.
Turning to OGFOD2 (UniProt Q6N063), the NP40-soluble protein abundance turned out to be 0.949 ± 0.026.

The assay is the same for the next values; noted with them: concentration: 6mM.
Take UniProt Q6P9B6: the NP40-soluble protein abundance came out at 0.991 ± 0.035.
On to RAB11FIP1 (UniProt Q6WKZ4), for which the NP40-soluble protein abundance was 1.02 ± 0.039.
Take UniProt Q709C8 and related entries: the NP40-soluble protein abundance came out at 0.891 ± 0.025.
Consider LARP1 (UniProt Q6PKG0), for which the NP40-soluble protein abundance came to 0.971 ± 0.058.
On the same count and under the same terms, to UniProt Q68EM7-2|Q68EM7-3|Q68EM7 belongs 1.02 ± 0.034.
Consider UniProt Q7L4I2 and related entries, for which the NP40-soluble protein abundance was determined as 0.96 ± 0.04.
CNNM4 (UniProt Q6P4Q7): the NP40-soluble protein abundance is 0.972 ± 0.023.
TAF3 (UniProt Q5VWG9): the NP40-soluble protein abundance is 1.07 ± 0.045.
Regarding TTC27 (UniProt Q6P3X3), the NP40-soluble protein abundance is 0.98 ± 0.045.
UniProt Q7RTV0: the NP40-soluble protein abundance came out at 1.16 ± 0.045.
With UniProt Q7KYR7 and related entries, the NP40-soluble protein abundance amounted to 0.986 ± 0.039.
For USP34 (UniProt Q70CQ2), the NP40-soluble protein abundance was found to be 0.885 ± 0.021.
Take NAIF1 (UniProt Q69YI7): the NP40-soluble protein abundance was found to be 0.951 ± 0.02.
Turning to SDHAF4 (UniProt Q5VUM1), the NP40-soluble protein abundance worked out at 0.917 ± 0.017.
In the case of “Q5VV87 and related entries (UniProt O14880)”, the NP40-soluble protein abundance is 1.01 ± 0.056.
On to INTS5 (UniProt Q6P9B9), for which the NP40-soluble protein abundance stood at 1.1 ± 0.032.
For the target MRPL14 (UniProt Q6P1L8), the NP40-soluble protein abundance turned out to be 1.04 ± 0.03.
Turning to UniProt Q5XUX1 and related entries, the NP40-soluble protein abundance is 0.993 ± 0.021.
For UniProt Q71RC2 and related entries, the NP40-soluble protein abundance is 1.06 ± 0.061.
On the same count and under the same terms, in the case of UniProt Q6FI81 and related entries it was 1.07 ± 0.029; in that of UniProt Q7Z434 and related entries, 0.981 ± 0.013; in that of HS2ST1 (UniProt Q7LGA3), 1.2 ± 0.079.
Regarding UniProt Q6ICG6 and related entries, the NP40-soluble protein abundance is 0.994 ± 0.06.
ZCCHC8 (UniProt Q6NZY4): the NP40-soluble protein abundance is 1.03 ± 0.092.
Still for that read-out and setting: in the case of UniProt Q6DHV7 and related entries it was 1.03 ± 0.031; in that of UniProt Q5VT52 and related entries, 1.08 ± 0.025.
On to UniProt Q7Z2W9 and related entries, for which the NP40-soluble protein abundance was found to be 0.9659 ± 0.0065.
For EDC4 (UniProt Q6P2E9), the NP40-soluble protein abundance was 0.957 ± 0.035.
ARHGAP11A (UniProt Q6P4F7): the NP40-soluble protein abundance came out at 0.985 ± 0.024.
Same read-out and setting: in the case of UniProt Q6PCB7 and related entries it was 0.999 ± 0.022; in that of PHLDB3 (UniProt Q6NSJ2), 1.01 ± 0.031; in that of TRIM65 (UniProt Q6PJ69), 0.971 ± 0.012.
UniProt Q5VWN6: the NP40-soluble protein abundance was found to be 1 ± 0.025.
For FASTKD5 (UniProt Q7L8L6), the NP40-soluble protein abundance came out at 0.951 ± 0.015.
UniProt Q63HQ0: the NP40-soluble protein abundance was 0.974 ± 0.026.
Turning to UniProt Q6P1N0 and related entries, the NP40-soluble protein abundance came out at 1.01 ± 0.014.
Still for that read-out and setting: in the case of UniProt Q6NUQ4 and related entries it was 1.11 ± 0.014; in that of UniProt Q6R327 and related entries, 0.981 ± 0.029; in that of SND1 (UniProt Q7KZF4), 1.21 ± 0.049.
On to OGFOD2 (UniProt Q6N063), for which the NP40-soluble protein abundance was determined as 0.959 ± 0.014.
